This assay has as its target cloned human CRF1 receptors (Homo sapiens, UniProt P34998). As to the kind of experiment: CRF1 receptor binding assay (inhibition of 125I-ovine-CRF binding to membranes of 293EBNA cells transfected with hCRFR1). Conditions: read-out: IC50 Range* (potency of binding to CRF1 receptor).

Chains of the proteins cited; added tags and fusions are not shown. Residues count along the entry.
UniProt P34998, 24-415 limits assumed: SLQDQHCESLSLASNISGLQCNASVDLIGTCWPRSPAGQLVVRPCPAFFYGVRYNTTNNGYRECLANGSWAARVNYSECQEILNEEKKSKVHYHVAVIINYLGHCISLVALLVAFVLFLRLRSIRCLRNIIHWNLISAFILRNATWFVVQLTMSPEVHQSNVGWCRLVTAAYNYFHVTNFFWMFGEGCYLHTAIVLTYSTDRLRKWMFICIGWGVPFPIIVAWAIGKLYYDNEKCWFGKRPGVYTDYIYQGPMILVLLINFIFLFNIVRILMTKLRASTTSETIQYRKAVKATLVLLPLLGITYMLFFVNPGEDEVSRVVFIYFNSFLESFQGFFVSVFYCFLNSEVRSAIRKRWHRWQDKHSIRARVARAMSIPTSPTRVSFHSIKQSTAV

Like-named read-outs stand apart in the source and are kept apart here. The match of structure and compound is tentative.

As a reminder, the IC50 is the point on the concentration scale where inhibition reaches its midpoint. As for `Cc1nc2c(-c3cc(F)c(N(C)C)cc3Cl)ccnc2n(C(C)C2CCC2)c1=O` (centres unmarked), the IC50 (IC50 ranges as class symbols a-e) lay within 1 to 10 nM.
For `CCC(COC)n1c(=O)c(C)nc2c(-c3ccc(OC)cc3Cl)ncnc21` (centres unmarked), where the note is “IC50 ranges, class symbols a-e”, the IC50 was in the range of 10 to 100 nM.

(Values after US7067658B2, “Pyridino and pyrimidino pyrazinones” (Bristol-Myers Squibb Company, priority 2002, dated 2006).)
